Measurements reported in PubChem BioAssay AID504834 (National Center for Advancing Translational Sciences (NCATS), 2011).
The whole screen tested about 320,000 compounds, of which about 22,000 (6.9%) were called active. Inconclusive means that the source gave no clear call. Such entries were picked first, then a sample of the others. The call rests on the fitted dose curve; in most records, active means well fitted inhibition curve with a large enough effect; inconclusive means small, poorly fitted or top-dose-only effect, or another doubt; inactive means no such curve, though single readings can be large or run the other way. Potencies beside an inconclusive call are fits to weak or partial responses and may not hold up.

Assay: Primary qHTS for delayed death inhibitors of the malarial parasite plastid, 96 hour incubation
Conditions: P. falciparum luciferase reporter growth; series mostly up to 28.7 µM
Procedure, shortened: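 Delayed-death screen, second-generation endpoint: infected erythrocytes, 2% hematocrit, 0.05% parasitemia final; 96 hours at 37 C, 5% CO2; luciferase detection reagent; luminescence decrease equals reduced growth.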
Potency means the concentration at half of the fitted maximal effect.

Compound | Potency
COc1cc(-c2nc(Cc3ccccc3Cl)no2)cc(OC)c1OC | inconclusive: 0.185 µM [inhibitor, full curve, poor fit]
NC(=O)CC(NC(=O)Cc1ccc(Cl)cc1)c1ccc(NC2CCCC2)c([N+](=O)[O-])c1 (stereo unspecified) | inconclusive: 13.1 µM [inhibitor, partial curve, poor fit]
CCOc1ccc(C(O)(c2ccccc2)C(CN2CCCC2)c2ccccc2)cc1 (stereo unspecified) | inactive
CS(=O)(=O)N1CCC(C(=O)Nc2ccc(Cl)c(Cl)c2)CC1 | inactive
O=C(Cn1cc([N+](=O)[O-])ccc1=O)NCc1ccc(Cl)cc1Cl | inactive
COC(=O)C1=C(C)NC(C)=C(C(=O)OC)C1c1cc2cc(C)ccc2[nH]c1=O | inactive
Cc1ccc(S(=O)(=O)N2CCN(C3CC(=O)N(Cc4ccccc4)C3=O)CC2)cc1C (stereo unspecified) | inconclusive: 0.928 µM [inhibitor, partial curve, poor fit]
CCOC(=O)c1cnn(-c2ccccc2)c1-n1cccc1C(=O)C(=O)N(CC)CC | inconclusive: 2.94 µM [inhibitor, single point]
CC1CN(S(=O)(=O)c2cc(C(=O)NCc3ccncc3)ccc2Cl)CC(C)O1 (stereo unspecified) | inconclusive: 5.86 µM [inhibitor, partial curve]
O=C(O)CC1S/C(=N/N=C/c2ccccn2)NC1=O (stereo unspecified) | inconclusive: 8.28 µM [inhibitor, partial curve, poor fit]
CCC(C(=O)OCc1csc(CC(=O)Nc2ccccc2C)n1)c1ccccc1 (stereo unspecified) | inconclusive: 18.5 µM [inhibitor, single point]
CCN(c1ccccc1)S(=O)(=O)c1ccc(OC)c(NC(=O)CNCCc2ccccc2)c1 | inconclusive: 0.415 µM [inhibitor, full curve, poor fit]
Cc1nc2nc[nH]n2c(=O)c1CC(=O)O | inactive
CN(C)c1ccc(N=Nc2ccccc2C(=O)OCC(=O)NC2CCCC2)cc1 | active: 8.28 µM
CCCN(CCC)CC(O)CN1C(=O)NC(C)(C)C1=O (stereo unspecified) | inactive
CC(C)(C)n1nc(-c2ccc(Cl)cc2)c2c(N)ncnc21 | active: 3.7 µM
NC(=O)c1c(NC(=O)C2c3ccccc3Oc3ccccc32)sc2c1CCCCC2 | inactive
CCn1nc2cc(C(=O)NCC34CC5CC(CC(C5)C3)C4)ccc2c1OC | inactive
COc1ccc(-c2noc(N3CCC(C(=O)Nc4ccc(F)cc4F)CC3)n2)cc1 | inconclusive: 16.5 µM [inhibitor, single point]
Cc1sc2ncnc(N3CCC(C(=O)Nc4cc(Cl)ccc4Cl)CC3)c2c1C | inconclusive: 18.5 µM [inhibitor, single point]
COc1ccc(C(=O)N2N=C(c3ccccc3)CC2(O)C(F)(F)F)cc1 (stereo unspecified) | inconclusive: 1.85 µM [inhibitor, partial curve, poor fit]
COCCn1c(=NC(=O)c2ccc(S(=O)(=O)N3CCc4ccccc4C3)cc2)sc2cc(S(N)(=O)=O)ccc21 | active: 7.38 µM
COc1ccc(S(=O)(=O)N2CCOCC2)cc1NC(=O)c1cccc(Cl)c1 | inactive
O=C(Cc1ccccc1[N+](=O)[O-])Nc1ccc(S(=O)(=O)N2CCCC2)cc1 | inconclusive: 1.31 µM [inhibitor, full curve, poor fit]

Compound | Potency
NCC1CCC(C(=O)O)CC1 (stereo unspecified) | inactive
CCCCSc1nc(C)cc(NC(=S)Nc2ccc(OC)cc2)n1 | inconclusive: 4.65 µM [inhibitor, partial curve, poor fit]
N#Cc1nc(COc2ccc(-c3ccccc3)cc2)oc1NCCCN1CCOCC1 | inconclusive: 3.29 µM [inhibitor, partial curve, poor fit]
CCc1ccc(NC(=O)CNC(=O)Cn2ccc3ccccc3c2=O)cc1 | inconclusive: 8.28 µM [inhibitor, single point]
Oc1ccc(/C=N/Nc2nccnc2Cl)cc1 | inactive
CCCN(Cc1cc2ccc(C)cc2[nH]c1=O)S(=O)(=O)c1ccccc1 | inconclusive: 18.5 µM [inhibitor, single point]
Cc1ccc(S(=O)(=O)N2CCOCC2)cc1C(=O)OCC(=O)NC1CCCC(C)C1C (stereo unspecified) | inconclusive: 18.5 µM [inhibitor, single point]
COc1cccc(CNC(=O)CSCc2cnn(-c3ccccc3)c2-n2cccc2)c1OC | inconclusive: 11.7 µM [inhibitor, single point]
COc1ccc(C(=O)NC(=S)NC(C)C)cc1Br | inconclusive: 0.0026 µM [inhibitor, full curve, poor fit]
Cc1cc(C)c(C)c(S(=O)(=O)N2CCCCC2C(=O)O)c1C (stereo unspecified) | inconclusive: 6.57 µM [inhibitor, partial curve, poor fit]
CCCc1nc2ccccc2c(C(=O)OCC(=O)NCc2ccco2)c1CC | inconclusive: 10.4 µM [inhibitor, single point]
COc1ccccc1CNC(=O)C1CC(c2ccc([N+](=O)[O-])cc2)=NO1 (stereo unspecified) | inconclusive: 0.928 µM [inhibitor, partial curve, poor fit]
COC(=O)c1ccc2c(=O)[nH]c(COC(=O)c3c(-c4ccccc4Cl)noc3C)nc2c1 | inconclusive: 18.5 µM [inhibitor, single point]
CC(NC(=O)c1ccccc1)c1nc2ccccc2n1Cc1ccc(C#N)cc1 (stereo unspecified) | inconclusive: 4.15 µM [inhibitor, single point]
CCC/C=N/NC(=O)c1ccccc1O | inactive
CSc1ccc(S(=O)(=O)N2CCC(C(=O)NCc3ccccn3)CC2)cc1 | active: 11.7 µM
COc1ccc(S(=O)(=O)NCC(c2ccc3c(c2)OCO3)N2CCOCC2)cc1 (stereo unspecified) | inactive
C[C@]12CCC(=O)C(O)=C1CC[C@@H]1[C@H]3CCC(=O)[C@@]3(C)CC[C@@H]12 | inconclusive: 5.36 µM [inhibitor, partial curve, poor fit]
CC1=NN(C(=S)Nc2ccccc2)C(c2ccccc2)C1 (stereo unspecified) | active: 2.62 µM
COc1cc2c(cc1O)C[C@H]1c3c(cc(O)c(OC)c3-2)CCN1C | inconclusive: 18.5 µM [inhibitor, single point]
CN1C(=O)C(C)(C)c2cc(S(=O)(=O)N3CCN(c4ccccc4F)CC3)ccc21 | inactive
Cc1cc(Nc2ccc(C(=O)O)cc2)nc(N)n1 | inactive
CCn1cc(C(=O)O)c(=O)c2cc(F)c(N3CCN(C(=S)NC(=O)c4ccccc4F)CC3)cc21 | active: 6.57 µM
Cc1cc(=O)[nH]c(N/N=C/c2cc(C)n(-c3ccccc3)c2C)n1 | inconclusive: 18.5 µM [inhibitor, single point]

4 records picked at random from those above:
Compound | Potency
Cc1cc(=O)[nH]c(N/N=C/c2cc(C)n(-c3ccccc3)c2C)n1 | inconclusive: 18.5 µM [inhibitor, single point]
CN1C(=O)C(C)(C)c2cc(S(=O)(=O)N3CCN(c4ccccc4F)CC3)ccc21 | inactive
CCC/C=N/NC(=O)c1ccccc1O | inactive
CC1=NN(C(=S)Nc2ccccc2)C(c2ccccc2)C1 (stereo unspecified) | active: 2.62 µM

Remaining list, next part

Compound | Potency
CC1=NN(C(C#N)c2c(C)nn(Cc3ccccc3)c2C)C(C)(C)C1 (stereo unspecified) | inactive
COC(=O)[C@H](C)NC(=O)NCc1ccccc1 | inactive
CNc1oc(-c2ccccc2F)nc1S(=O)(=O)c1ccc(C)cc1 | inconclusive: 18.5 µM [inhibitor, single point]
O=C(Cc1ccccc1)NC(NC(=S)Nc1cc(Cl)ccc1Cl)C(Cl)(Cl)Cl (stereo unspecified) | inactive
CCn1c2ccccc2c2cc(NC(=O)C(C)Oc3ccccc3)ccc21 (stereo unspecified) | inconclusive: 0.0738 µM [inhibitor, full curve, poor fit]
Cc1cc2ccccc2n1CCNC(=O)c1ccc(S(=O)(=O)N2CCCCC2)cc1 | active: 1.65 µM
CCC(C)c1ccc(NC(=O)CN(C)CC(=O)Nc2cccc(OC)c2)cc1 (stereo unspecified) | inconclusive: 0.465 µM [inhibitor, full curve, poor fit]
CCCCCSc1nc(N2CCOCC2)c2c(c1C#N)CC(C)(C)OC2 | inconclusive: 11.7 µM [inhibitor, partial curve]
O=C(Nc1ccccc1-c1nnn(CC(=O)N2CCCc3ccccc32)n1)c1ccc(Cl)cc1 | active: 11.7 µM
CC(=O)c1ccc(NC(=O)c2ccc(NC(=O)CCS(=O)(=O)c3cccs3)cc2)cc1 | inactive
Cc1ccccc1-n1c(SCC(=O)Nc2ccc3c(c2)OCO3)nnc1-c1ccccn1 | inactive
O=C(CN(CC1CCCO1)C(=O)CNS(=O)(=O)c1ccc(F)cc1)NC1CCCC1 (stereo unspecified) | inconclusive: 5.22 µM [inhibitor, partial curve, poor fit]
CC(OC(=O)c1nc(Cl)ccc1Cl)C(=O)NC1CCCCC1C (stereo unspecified) | inactive
C=CCn1c(SCc2csc(C)n2)nc2sc3c(c2c1=O)CCC(C)C3 (stereo unspecified) | inconclusive: 0.37 µM [inhibitor, full curve, poor fit]
S=c1[nH]nc(C2CCCCC2)n1/N=C/c1ccccn1 | inactive
COC(=O)C1(C)CN(S(=O)(=O)c2ccc(C)cc2)c2cc(OC)ccc2C1=O (stereo unspecified) | inconclusive: 14.7 µM [inhibitor, partial curve, poor fit]
Cc1ccc(C)c(NC(=O)CN(C)C(=O)c2ccccc2OCc2ccc(Cl)cc2)c1 | inconclusive: 7.38 µM [inhibitor, single point]
CCOc1ccc(Nc2ncnc3c2cnn3-c2ccccc2)cc1 | inactive
CCCCOC(=O)c1cccc(NC(=O)CCC(=O)O)c1 | inconclusive: 13.1 µM [inhibitor, single point]
O=C(Nc1ccc2c(c1)OCCO2)c1cccc2nc3ccccc3nc12 | inconclusive: 0.415 µM [inhibitor, full curve, poor fit]
CCOC(=O)c1ccc(NC(=O)C2C3C=CC(C3)C2C(=O)O)cc1 (stereo unspecified) | inconclusive: 0.522 µM [inhibitor, full curve, poor fit]
O=C(NC1=NCCS1)c1cccc2ccccc12 | inactive
CCCCNC(=O)c1cc2c(=O)n3cccc(C)c3nc2n(CCN2CCOCC2)c1=N | inconclusive: 4.15 µM [inhibitor, full curve, poor fit]
